Our source for the binding values is publication doi:10.64898/2025.12.21.695507.

These are yes or no findings as the source states them, for the method shown. Binding seen in cells or lysates may run through a third protein. Here binding means that the protein was enriched with, or labelled near, the bait; the list need not be complete.

In the experiment the target is Rhoptry Serine Hydrolase (RhoSH, PBANKA_1001500) (P. berghei). Nature of the experiment: affinity purification with mass spectrometry.

With “PBANKA_1312200, a putative ubiquitin-protein ligase (from UniProt A0A509AS13)”, the binding result is on record as “binds”.
